Experimental data from patent US20100048677A1.
Results are given in words; binding and its absence hold for the method and conditions named. Binding seen in cells or lysates may run through a third protein. Some entries that bind do so weakly or less than the wild type.

Amino acid sequences for entries named in this document (tags omitted). A change or cut given only in a name is not applied to a line headed by its entry. Chains listed by the source or under a name are the forms on record and can include a tag or linker. Residues count along the entry.
pro-αIIb (P08514, residues 32-1039): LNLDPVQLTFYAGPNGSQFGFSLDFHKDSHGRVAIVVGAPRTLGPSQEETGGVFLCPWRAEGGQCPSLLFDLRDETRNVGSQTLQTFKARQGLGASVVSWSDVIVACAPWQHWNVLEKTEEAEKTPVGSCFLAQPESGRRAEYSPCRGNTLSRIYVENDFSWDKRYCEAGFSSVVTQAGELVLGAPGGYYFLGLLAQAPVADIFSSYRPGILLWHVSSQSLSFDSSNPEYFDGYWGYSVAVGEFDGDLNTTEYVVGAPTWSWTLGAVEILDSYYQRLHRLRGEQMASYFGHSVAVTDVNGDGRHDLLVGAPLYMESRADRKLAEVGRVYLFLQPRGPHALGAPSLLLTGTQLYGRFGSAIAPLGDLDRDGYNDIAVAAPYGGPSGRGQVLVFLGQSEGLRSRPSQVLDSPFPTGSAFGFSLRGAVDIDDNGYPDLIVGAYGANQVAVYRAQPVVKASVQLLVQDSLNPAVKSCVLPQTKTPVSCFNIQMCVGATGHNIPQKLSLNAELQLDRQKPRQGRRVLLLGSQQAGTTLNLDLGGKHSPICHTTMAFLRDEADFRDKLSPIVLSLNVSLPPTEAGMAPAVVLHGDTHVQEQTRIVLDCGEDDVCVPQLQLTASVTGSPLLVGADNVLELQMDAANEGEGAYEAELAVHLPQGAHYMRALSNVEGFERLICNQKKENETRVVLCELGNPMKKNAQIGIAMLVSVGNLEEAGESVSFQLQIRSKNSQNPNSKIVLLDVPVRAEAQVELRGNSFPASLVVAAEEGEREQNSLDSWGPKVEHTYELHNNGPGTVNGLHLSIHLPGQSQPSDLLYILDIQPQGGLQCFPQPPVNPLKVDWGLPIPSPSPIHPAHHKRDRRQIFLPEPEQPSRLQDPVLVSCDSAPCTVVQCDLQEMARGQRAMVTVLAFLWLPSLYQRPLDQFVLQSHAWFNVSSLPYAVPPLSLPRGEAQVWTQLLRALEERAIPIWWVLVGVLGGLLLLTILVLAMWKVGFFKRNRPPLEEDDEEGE
pro-αIIb R858G/R859G (P08514, form named): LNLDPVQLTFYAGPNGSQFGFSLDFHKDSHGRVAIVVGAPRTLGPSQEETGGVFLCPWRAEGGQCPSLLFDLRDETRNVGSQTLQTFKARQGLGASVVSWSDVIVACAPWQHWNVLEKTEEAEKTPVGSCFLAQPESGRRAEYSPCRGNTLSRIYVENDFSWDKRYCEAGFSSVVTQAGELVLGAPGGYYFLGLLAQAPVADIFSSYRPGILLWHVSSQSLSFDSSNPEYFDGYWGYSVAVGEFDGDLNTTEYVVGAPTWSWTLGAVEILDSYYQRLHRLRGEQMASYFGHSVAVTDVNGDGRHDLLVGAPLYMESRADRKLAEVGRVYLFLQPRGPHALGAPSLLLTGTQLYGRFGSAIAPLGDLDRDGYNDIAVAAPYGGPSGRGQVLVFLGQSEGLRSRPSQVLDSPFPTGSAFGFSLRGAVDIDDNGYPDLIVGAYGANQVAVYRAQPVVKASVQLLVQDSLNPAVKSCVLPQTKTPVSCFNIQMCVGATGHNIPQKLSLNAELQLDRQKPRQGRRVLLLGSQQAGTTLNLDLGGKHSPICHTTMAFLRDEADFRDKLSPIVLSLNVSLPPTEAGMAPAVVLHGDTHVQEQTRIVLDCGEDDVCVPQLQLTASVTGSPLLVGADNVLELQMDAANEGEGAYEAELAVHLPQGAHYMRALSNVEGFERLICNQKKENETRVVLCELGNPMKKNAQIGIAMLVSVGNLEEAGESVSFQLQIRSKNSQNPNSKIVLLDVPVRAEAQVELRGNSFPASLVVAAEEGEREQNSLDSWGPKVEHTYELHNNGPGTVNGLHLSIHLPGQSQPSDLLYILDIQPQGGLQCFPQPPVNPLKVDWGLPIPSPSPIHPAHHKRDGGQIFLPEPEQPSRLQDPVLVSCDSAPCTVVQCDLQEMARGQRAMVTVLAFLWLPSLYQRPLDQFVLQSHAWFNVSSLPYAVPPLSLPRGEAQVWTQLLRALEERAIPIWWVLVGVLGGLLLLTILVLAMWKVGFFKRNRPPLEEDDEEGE
UniProt P05106: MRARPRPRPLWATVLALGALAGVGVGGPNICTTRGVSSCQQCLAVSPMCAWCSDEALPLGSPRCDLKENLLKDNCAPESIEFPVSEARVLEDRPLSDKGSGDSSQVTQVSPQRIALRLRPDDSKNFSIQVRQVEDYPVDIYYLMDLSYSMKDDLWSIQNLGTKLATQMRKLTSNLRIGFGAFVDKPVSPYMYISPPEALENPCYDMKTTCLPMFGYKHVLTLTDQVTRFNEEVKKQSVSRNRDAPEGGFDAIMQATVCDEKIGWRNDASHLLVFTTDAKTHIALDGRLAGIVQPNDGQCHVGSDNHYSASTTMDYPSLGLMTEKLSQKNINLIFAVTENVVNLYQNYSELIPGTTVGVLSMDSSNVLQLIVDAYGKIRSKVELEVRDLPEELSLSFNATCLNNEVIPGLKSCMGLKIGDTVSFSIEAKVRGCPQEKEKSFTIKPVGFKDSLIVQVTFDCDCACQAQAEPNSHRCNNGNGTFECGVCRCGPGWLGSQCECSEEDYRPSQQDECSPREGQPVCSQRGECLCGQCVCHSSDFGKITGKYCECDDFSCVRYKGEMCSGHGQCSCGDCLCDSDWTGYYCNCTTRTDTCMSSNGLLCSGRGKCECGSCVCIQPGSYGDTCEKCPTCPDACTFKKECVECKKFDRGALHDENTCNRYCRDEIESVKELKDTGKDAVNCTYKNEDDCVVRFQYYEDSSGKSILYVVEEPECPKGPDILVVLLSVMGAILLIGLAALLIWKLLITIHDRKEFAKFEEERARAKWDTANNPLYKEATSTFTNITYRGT

Columns and labels:
αIIbβ3 (human) [1] = target: T1, αIIbβ3 (human) (UniProt P08514+P05106); assay: co-immunoprecipitation
pro-αIIb (human) [2] = target: pro-αIIb (human) (UniProt P08514); assay: co-immunoprecipitation with mAb BIB5
[3] = target: pro-αIIb R858G/R859G (human) (UniProt P08514); assay: co-immunoprecipitation, HEK293 cells
αIIbβ3 (human) [4] = target: T1, αIIbβ3 (human); assay: co-immunoprecipitation, megakaryocytes
αIIbβ3 (human) [5] = target: T1, αIIbβ3 (human); assay: co-immunoprecipitation, immunoblot with anti-DNAJC10
[6] = target: pro-αIIbβ3 complex (human) (UniProt P08514+P05106); assay: co-immunoprecipitation with conformation-specific mAbs
pro-αIIb (human) [7] = target: pro-αIIb (human) (UniProt P08514); assay: co-immunoprecipitation with mAb B1B5, immunoblot for DNAJC10

binding (αIIbβ3 (human) [1]): binds
binding (pro-αIIb (human) [2]): binds
binding [3]: binds
binding (αIIbβ3 (human) [4]): binds
binding (αIIbβ3 (human) [5]): binds
binding [6]: binds
binding (pro-αIIb (human) [7]): binds
B1: DNAJC10 (DNAJ (HSP40) HOMOLOG, SUBFAMILY C, MEMBER 10) (protein)
chain: DQDFYSLLGVSKTASSREIRQAFKKLALKLHPDKNPNNPNAHGDFLKINRAYEVLKDEDLRKKYDKYGEKGLEDNQGGQYESWNYYRYDFGIYDDDPEIITLERREFDAAVNSGELWFVNFYSPGCSHCHDLAPTWRDFAKEVDGLLRIGAVNCGDDRMLCRMKGVNSYPSLFIFRSGMAPVKYHGDRSKESLVSFAMQHVRSTVTELWTGNFVNSIQTAFAAGIGWLITFCSKGGDCLTSQTRLRLSGMLDGLVNVGWMDCATQDNLCKSLDITTSTTAYFPPGATLNNKEKNSILFLNSLDAKEIYLEVIHNLPDFELLSANTLEDRLAHHRWLLFFHFGKNENSNDPELKKLKTLLKNDHIQVGRFDCSSAPDICSNLYVFQPSLAVFKGQGTKEYEIHHGKKILYDILAFAKESVNSHVTTLGPQNFPANDKEPWLVDFFAPWCPPCRALLPELRRASNLLYGQLKFGTLDCTVHEGLCNMYNIQAYPTTVVFNQSNIHEYEGHHSAEQILEFIEDLMNPSVVSLTPTTFNELVTQRKHNEVWMVDFYSPWCHPCQVLMPEWKRMARTLTGLINVGSIDCQQYHSFCAQENVQRYPEIRFFPPKSNKAYHYHSYNGWNRDAYSLRIWGLGFLPQVSTDLTPQTFSEKVLQGKNHWVIDFYAPWCGPCQNFAPEFELLARMIKGKVKAGKVDCQAYAQTCQKAGIRAYPTVKFYFYERAKRNFQEEQINTRDAKAIAALISEKLETLRNQGKRNKDEL
